From the supplement of paper PMC11732987, “Enantioselective OTUD7B fragment discovery through chemoproteomics screening and high-throughput optimisation” (Communications Chemistry, 2025)
This is one part of the list. The data scatter; read single values as rough.

Sequences of proteins named here, by UniProt entry; tags and fusion partners are left off. A change or cut given only in a name is not applied to a line headed by its entry. Residues count along the entry.
UniProt P49790: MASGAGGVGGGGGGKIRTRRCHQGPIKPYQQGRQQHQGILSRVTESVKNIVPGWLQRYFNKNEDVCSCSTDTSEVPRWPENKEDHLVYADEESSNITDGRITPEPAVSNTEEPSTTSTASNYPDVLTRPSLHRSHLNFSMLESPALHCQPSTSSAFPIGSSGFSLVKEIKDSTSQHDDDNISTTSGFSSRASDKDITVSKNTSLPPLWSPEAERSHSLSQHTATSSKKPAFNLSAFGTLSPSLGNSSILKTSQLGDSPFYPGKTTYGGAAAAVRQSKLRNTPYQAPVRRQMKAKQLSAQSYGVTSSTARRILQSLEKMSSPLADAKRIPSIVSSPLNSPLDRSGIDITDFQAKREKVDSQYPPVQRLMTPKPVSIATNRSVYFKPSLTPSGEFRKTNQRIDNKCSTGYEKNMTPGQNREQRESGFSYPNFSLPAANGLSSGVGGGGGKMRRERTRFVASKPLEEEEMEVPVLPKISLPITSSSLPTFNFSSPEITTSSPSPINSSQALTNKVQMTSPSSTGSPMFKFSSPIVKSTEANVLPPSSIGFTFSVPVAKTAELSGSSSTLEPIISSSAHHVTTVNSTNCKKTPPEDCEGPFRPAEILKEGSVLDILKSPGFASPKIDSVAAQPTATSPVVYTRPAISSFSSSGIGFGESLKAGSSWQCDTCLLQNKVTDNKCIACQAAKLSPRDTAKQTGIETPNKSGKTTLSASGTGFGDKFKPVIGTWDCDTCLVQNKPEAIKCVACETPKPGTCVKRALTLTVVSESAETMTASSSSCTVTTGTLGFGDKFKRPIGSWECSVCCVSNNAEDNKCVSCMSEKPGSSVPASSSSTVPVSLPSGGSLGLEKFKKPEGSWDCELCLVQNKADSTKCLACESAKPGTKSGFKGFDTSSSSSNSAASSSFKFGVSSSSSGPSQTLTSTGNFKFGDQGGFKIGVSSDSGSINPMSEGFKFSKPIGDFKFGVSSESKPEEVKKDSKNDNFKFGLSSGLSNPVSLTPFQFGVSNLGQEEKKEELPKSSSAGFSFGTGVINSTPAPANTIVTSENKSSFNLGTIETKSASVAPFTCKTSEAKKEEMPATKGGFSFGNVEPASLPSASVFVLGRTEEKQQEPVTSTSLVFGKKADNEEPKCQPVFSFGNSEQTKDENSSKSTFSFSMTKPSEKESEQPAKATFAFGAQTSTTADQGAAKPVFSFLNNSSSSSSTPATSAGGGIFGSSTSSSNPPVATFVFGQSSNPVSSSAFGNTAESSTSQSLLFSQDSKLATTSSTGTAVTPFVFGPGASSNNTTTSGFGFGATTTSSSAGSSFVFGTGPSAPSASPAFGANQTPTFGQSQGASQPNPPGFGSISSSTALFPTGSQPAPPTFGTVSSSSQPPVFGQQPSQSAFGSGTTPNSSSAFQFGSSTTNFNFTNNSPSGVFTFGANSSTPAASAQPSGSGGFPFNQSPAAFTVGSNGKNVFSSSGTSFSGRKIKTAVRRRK
UniProt P52948: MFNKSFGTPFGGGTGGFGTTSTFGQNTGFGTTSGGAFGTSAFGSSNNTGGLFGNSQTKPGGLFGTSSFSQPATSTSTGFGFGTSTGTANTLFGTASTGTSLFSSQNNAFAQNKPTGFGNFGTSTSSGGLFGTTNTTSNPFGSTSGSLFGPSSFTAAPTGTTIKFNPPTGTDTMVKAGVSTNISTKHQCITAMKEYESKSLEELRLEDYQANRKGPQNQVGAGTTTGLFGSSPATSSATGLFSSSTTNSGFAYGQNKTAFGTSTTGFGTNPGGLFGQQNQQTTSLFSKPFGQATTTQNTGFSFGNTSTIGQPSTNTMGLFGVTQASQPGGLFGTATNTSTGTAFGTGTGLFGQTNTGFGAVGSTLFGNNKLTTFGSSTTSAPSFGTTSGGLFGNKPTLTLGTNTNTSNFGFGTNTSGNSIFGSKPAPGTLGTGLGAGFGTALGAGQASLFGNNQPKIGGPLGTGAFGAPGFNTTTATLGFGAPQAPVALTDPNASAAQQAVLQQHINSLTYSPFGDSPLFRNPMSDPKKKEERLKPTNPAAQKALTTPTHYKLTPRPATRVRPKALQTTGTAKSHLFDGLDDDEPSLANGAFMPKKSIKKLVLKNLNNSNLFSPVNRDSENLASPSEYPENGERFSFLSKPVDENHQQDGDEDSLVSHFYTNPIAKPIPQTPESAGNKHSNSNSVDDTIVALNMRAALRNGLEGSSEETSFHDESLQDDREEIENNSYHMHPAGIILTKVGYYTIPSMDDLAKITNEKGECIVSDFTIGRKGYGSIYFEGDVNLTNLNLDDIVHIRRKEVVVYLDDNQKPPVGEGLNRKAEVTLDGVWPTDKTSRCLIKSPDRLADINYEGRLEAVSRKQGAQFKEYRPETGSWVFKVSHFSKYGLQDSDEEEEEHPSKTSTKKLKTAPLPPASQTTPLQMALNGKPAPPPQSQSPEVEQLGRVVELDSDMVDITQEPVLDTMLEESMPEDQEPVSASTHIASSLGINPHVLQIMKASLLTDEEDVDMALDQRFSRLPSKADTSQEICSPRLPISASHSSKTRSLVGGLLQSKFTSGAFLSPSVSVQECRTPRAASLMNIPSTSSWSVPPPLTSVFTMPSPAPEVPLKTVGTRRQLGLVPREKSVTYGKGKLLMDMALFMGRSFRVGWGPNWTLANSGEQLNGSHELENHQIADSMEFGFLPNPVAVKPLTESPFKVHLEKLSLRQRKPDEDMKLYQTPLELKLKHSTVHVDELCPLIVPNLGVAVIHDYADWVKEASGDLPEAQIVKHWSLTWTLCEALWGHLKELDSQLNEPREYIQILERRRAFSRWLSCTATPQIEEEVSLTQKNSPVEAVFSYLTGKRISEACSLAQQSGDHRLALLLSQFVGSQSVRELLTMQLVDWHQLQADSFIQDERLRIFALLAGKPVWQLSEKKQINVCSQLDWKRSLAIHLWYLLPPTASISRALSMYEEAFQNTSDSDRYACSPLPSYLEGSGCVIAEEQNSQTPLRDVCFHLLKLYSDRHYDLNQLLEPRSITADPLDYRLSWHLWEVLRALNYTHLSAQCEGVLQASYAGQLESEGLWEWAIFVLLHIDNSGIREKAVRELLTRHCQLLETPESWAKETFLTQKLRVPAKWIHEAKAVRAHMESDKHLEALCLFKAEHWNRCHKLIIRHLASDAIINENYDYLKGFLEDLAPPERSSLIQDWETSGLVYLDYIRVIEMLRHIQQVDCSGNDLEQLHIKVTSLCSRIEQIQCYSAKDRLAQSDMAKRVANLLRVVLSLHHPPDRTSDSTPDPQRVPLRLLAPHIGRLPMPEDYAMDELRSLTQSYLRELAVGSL
UniProt Q9Y6K5: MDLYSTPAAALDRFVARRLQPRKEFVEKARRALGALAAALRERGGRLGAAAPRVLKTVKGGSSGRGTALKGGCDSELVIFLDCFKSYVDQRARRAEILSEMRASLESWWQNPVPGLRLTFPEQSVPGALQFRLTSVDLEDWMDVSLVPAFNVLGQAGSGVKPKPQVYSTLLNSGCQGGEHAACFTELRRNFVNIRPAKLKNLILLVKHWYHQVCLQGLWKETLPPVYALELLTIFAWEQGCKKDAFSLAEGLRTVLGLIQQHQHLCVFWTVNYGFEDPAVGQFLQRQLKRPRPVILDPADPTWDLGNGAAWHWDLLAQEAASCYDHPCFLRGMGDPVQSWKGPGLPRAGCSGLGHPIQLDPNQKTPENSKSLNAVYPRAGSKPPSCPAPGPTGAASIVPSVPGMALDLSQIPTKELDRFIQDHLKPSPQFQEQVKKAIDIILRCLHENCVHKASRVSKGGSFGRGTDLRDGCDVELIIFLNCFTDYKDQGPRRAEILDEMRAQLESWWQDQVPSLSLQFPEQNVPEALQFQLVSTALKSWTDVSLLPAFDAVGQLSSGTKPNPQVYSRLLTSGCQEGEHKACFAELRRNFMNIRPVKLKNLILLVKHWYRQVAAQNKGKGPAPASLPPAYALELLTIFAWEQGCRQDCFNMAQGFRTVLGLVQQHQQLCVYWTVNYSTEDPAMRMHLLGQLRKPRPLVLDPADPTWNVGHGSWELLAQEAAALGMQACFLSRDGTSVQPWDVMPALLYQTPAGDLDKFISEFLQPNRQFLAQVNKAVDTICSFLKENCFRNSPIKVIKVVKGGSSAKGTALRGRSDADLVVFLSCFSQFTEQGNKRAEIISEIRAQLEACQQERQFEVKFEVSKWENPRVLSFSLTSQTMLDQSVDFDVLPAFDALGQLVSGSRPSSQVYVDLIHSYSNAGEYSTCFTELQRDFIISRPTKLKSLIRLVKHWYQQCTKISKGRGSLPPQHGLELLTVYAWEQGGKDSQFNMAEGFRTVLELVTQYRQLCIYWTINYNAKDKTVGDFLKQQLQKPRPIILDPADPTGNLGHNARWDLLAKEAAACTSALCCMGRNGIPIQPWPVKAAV
UniProt P55786: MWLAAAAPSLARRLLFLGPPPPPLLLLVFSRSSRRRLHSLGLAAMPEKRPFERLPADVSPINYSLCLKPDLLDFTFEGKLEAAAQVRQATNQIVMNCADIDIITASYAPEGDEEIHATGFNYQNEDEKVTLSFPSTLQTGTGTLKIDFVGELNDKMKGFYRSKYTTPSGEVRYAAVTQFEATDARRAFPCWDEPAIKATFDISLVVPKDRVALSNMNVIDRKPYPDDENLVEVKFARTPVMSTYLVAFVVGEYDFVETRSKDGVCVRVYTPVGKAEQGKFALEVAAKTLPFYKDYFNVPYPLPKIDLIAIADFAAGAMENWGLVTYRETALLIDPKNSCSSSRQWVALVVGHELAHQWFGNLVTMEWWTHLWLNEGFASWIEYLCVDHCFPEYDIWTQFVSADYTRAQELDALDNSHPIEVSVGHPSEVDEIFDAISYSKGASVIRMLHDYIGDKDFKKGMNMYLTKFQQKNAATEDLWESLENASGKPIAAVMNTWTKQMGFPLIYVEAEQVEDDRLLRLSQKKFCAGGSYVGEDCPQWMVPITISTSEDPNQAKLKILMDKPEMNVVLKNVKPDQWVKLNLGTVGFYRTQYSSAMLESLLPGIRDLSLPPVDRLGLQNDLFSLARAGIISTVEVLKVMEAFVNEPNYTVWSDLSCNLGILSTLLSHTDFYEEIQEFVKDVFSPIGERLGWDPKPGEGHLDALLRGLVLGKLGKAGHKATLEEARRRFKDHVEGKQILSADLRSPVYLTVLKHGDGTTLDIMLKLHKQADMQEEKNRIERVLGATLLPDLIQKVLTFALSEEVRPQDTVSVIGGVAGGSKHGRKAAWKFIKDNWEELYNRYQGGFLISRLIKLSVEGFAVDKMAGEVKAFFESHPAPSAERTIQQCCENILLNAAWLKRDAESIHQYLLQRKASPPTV
UniProt P04150, 367-386: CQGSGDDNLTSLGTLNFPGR
UniProt Q9BSD7: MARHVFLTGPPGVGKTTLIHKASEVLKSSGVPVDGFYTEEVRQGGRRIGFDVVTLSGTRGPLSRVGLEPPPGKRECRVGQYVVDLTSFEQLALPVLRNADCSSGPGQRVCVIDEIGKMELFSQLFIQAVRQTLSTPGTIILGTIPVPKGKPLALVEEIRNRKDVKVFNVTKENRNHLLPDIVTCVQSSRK
UniProt Q9Y6R0: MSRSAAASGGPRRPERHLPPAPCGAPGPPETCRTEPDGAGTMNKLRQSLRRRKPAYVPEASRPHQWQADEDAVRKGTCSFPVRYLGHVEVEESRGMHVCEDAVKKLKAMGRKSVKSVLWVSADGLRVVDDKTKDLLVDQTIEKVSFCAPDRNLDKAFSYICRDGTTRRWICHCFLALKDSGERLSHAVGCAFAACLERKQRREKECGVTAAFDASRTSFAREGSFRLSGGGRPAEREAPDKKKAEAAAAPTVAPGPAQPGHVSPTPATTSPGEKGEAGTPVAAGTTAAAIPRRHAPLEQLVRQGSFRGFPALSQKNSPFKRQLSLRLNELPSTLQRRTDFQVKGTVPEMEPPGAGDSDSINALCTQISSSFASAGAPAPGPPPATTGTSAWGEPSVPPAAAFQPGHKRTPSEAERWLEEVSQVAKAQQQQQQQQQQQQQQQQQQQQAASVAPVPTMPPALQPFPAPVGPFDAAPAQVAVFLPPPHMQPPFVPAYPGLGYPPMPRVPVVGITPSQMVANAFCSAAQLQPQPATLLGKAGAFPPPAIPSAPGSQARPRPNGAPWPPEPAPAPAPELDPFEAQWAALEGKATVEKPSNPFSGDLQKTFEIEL
UniProt Q86WQ0: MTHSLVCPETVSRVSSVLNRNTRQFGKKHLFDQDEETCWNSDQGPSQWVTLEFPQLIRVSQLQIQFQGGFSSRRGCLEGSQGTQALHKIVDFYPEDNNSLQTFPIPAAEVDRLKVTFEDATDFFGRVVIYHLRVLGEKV
UniProt Q96DC9: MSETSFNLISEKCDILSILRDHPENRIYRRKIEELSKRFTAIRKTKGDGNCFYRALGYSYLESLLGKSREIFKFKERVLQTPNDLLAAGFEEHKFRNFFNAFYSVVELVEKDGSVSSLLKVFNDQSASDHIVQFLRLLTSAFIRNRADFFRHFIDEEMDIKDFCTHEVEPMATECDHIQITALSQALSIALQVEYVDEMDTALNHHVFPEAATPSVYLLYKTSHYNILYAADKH

compound: ClCC(=O)N[C@@H]1CCCc2ccccc12; experiment: log2 mean competition ratio of IA-DTB cysteine labelling (DMSO/compound) (log2 ratio); higher = stronger cysteine engagement by compound; conditions: 50 µM; treatment time: 4 h; cell line lysate: HEK293T
Protocol: (§1)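 IA-DTB competitive cysteine chemoproteomics in HEK293T RIPA lysate. Lysates were treated with compound 29 or 30 at 50 or 200 µM for 4 h, then IA-DTB (500 µM, 1 h), trypsin-digested, NeutrAvidin-enriched and analysed by diaPASEF. Competition ratio = intensity DMSO / intensity compound (n=4 treated, n=64 DMSO); binding: mean log2 CR ≥ 1 and p ≤ 0.05 plus QC filters. Target is the cysteine site.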

Target	log2 mean competition ratio
NUP153 C593 (UniProt P49790)	0.616
NUP205 C698 (UniProt Q92621)	0.0456
NUP98 C1068 (UniProt P52948)	0.0618
OAS3 C574 (UniProt Q9Y6K5)	0.0185
NUMA1 C658 (UniProt Q14980)	-0.219
NSRP1 C232 (UniProt Q9H0G5)	-0.027
NSRP1 C171 (UniProt Q9H0G5)	0.0873
NSUN2 C93 (UniProt Q08J23)	0.122
NPEPPS C339 (UniProt P55786)	0.255
ORC1 C529 (UniProt Q13415)	0.141

same assay, conditions: 200 µM; treatment time: 4 h; cell line lysate: HEK293T

Target	log2 mean competition ratio
OPHN1 C24 (UniProt O60890)	-0.234
NR3C1 C367 (UniProt P04150)	0.427
NTPCR C101 (UniProt Q9BSD7)	0.113
NUF2 C377 (UniProt Q9BZD4)	0.281
NTPCR C110 (UniProt Q9BSD7)	0.0965
NUMBL C206 (UniProt Q9Y6R0)	0.128
NUMB C176 (UniProt P49757)	-0.163
NUP160 C1166 (UniProt Q12769)	0.102
NR2C2AP C7 (UniProt Q86WQ0)	1.1
OSGEPL1 C390 (UniProt Q9H4B0)	0.17
OTUB2 C51 (UniProt Q96DC9)	0.0509
NOTCH3 C1747 (UniProt Q9UM47)	0.216
NSD3 C627 (UniProt Q9BZ95)	0.0907
NPEPPS C265 (UniProt P55786)	-0.224
NUBP1 C307 (UniProt P53384)	0.463
NUMBL C99 (UniProt Q9Y6R0)	0.0144
NOTCH2 C264 (UniProt Q04721)	0.151
NUP205 C1486 (UniProt Q92621)	-0.174
NPLOC4 C188	0.0304

Target	log2 mean competition ratio
NUP85 C51 (UniProt Q9BW27)	0.151
NUDT5 C76	-0.0285
NUP155 C974 (UniProt O75694)	-0.0438
OPA1 C786 (UniProt O60313)	0.141
NUDT3 C68 (UniProt O95989)	-0.215
NUP188 C976 (UniProt Q5SRE5)	-0.765
OSBPL6 C379 (UniProt Q9BZF3)	-0.196
NUP107 C621 (UniProt P57740)	-0.347
NUP153 C593 (UniProt P49790)	0.212
NUP205 C698 (UniProt Q92621)	-0.0145
NUP98 C1068 (UniProt P52948)	0.163
OAS3 C574 (UniProt Q9Y6K5)	0.0707
NUMA1 C658 (UniProt Q14980)	-0.308
NSRP1 C232 (UniProt Q9H0G5)	-0.437
NSRP1 C171 (UniProt Q9H0G5)	0.112
NSUN2 C93 (UniProt Q08J23)	-0.19
NPEPPS C339 (UniProt P55786)	1.52
ORC1 C529 (UniProt Q13415)	0.449

compound: ClCC(=O)N[C@H]1CCCc2ccccc12; experiment: as above; conditions: 50 µM; treatment time: 4 h; cell line lysate: HEK293T
Protocol: as §1

Target	log2 mean competition ratio
OPHN1 C24 (UniProt O60890)	-0.591
NR3C1 C367 (UniProt P04150)	0.331
NTPCR C101 (UniProt Q9BSD7)	0.000876
NUF2 C377 (UniProt Q9BZD4)	-0.137
NTPCR C110 (UniProt Q9BSD7)	-0.0279
NUMBL C206 (UniProt Q9Y6R0)	0.195
NUMB C176 (UniProt P49757)	0.189
NUP160 C1166 (UniProt Q12769)	-0.0252
NR2C2AP C7 (UniProt Q86WQ0)	5.48
OSGEPL1 C390 (UniProt Q9H4B0)	-0.152
OTUB2 C51 (UniProt Q96DC9)	-0.171
NOTCH3 C1747 (UniProt Q9UM47)	-0.402
NSD3 C627 (UniProt Q9BZ95)	-0.116
NPEPPS C265 (UniProt P55786)	-0.0186
NUBP1 C307 (UniProt P53384)	-0.112
NUMBL C99 (UniProt Q9Y6R0)	0.195
NOTCH2 C264 (UniProt Q04721)	0.304
NUP205 C1486 (UniProt Q92621)	-0.0968
NPLOC4 C188	-0.19

Target	log2 mean competition ratio
NUP85 C51 (UniProt Q9BW27)	0.541
NUDT5 C76	0.0525
NUP155 C974 (UniProt O75694)	-0.0835
OPA1 C786 (UniProt O60313)	-0.0978
NUDT3 C68 (UniProt O95989)	0.0844
NUP188 C976 (UniProt Q5SRE5)	0.5
OSBPL6 C379 (UniProt Q9BZF3)	-0.809
NUP107 C621 (UniProt P57740)	0.473
NUP153 C593 (UniProt P49790)	-0.267
NUP205 C698 (UniProt Q92621)	-0.206
NUP98 C1068 (UniProt P52948)	0.234
OAS3 C574 (UniProt Q9Y6K5)	0.197
NUMA1 C658 (UniProt Q14980)	-0.136
NSRP1 C232 (UniProt Q9H0G5)	0.79
NSRP1 C171 (UniProt Q9H0G5)	-0.4
NSUN2 C93 (UniProt Q08J23)	0.191
NPEPPS C339 (UniProt P55786)	-0.0898
ORC1 C529 (UniProt Q13415)	0.257
